# Results as given in PubChem BioAssay AID1117319 (Southern Research Institute, 2015).
# Chains of the proteins cited; added tags and fusions are not shown. Lines headed by an entry give the natural chain unless they say otherwise; changes in a name come on top.
# UniProt P69720: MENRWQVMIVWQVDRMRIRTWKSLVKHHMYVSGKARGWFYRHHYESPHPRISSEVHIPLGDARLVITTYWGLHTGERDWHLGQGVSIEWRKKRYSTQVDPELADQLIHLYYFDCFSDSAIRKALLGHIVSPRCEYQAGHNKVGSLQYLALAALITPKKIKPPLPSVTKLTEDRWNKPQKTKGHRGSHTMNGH
# UniProt P69721: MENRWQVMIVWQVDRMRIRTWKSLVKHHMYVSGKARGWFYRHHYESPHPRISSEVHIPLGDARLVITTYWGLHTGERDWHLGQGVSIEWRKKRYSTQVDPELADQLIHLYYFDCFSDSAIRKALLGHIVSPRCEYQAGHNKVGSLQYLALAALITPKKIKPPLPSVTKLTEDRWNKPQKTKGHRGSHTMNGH
# UniProt P69722: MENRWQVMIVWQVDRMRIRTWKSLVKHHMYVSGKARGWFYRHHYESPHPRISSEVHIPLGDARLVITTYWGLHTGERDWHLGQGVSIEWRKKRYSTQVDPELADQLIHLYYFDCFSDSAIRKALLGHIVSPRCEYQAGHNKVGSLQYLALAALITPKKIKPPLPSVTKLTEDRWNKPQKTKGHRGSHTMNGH
# UniProt P69723: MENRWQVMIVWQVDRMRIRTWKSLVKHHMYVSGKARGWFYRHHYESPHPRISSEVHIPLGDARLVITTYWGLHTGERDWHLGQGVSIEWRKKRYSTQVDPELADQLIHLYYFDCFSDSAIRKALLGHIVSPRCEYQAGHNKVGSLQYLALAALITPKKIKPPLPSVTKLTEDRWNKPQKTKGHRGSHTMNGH
# UniProt Q9HC16: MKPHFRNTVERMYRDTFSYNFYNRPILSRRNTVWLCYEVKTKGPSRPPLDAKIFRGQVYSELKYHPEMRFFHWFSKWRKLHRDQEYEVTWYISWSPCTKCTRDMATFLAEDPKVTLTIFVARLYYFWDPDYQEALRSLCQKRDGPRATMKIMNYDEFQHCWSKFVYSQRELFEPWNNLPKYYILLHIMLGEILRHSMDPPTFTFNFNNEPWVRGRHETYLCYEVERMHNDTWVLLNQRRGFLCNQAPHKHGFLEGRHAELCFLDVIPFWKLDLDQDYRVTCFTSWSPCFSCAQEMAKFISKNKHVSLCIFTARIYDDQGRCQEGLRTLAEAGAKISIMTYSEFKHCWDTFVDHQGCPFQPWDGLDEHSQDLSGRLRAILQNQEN
# The campaign covered roughly 260,000 compounds. About 1,500 (0.58%) were called active. The inconclusive results got no clear call from the source; some entries with a clear call stand among them for comparison.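 Rule for the calls: active = inhibition above a set limit at one or more doses, reproduced on every date tested; inconclusive = results disagree between test dates, or hit never tested in dose response; inactive = the rest.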
# Biological target: Virion infectivity factor (Human immunodeficiency virus type 1 group M subtype B (isolate BH10)) + Virion infectivity factor (Human immunodeficiency virus type 1 group M subtype B (isolate BRU/LAI)) + Virion infectivity factor (Human immunodeficiency virus type 1 group M subtype B (isolate PCV12)) + Virion infectivity factor (Human immunodeficiency virus type 1 group M subtype B (isolate HXB2)) + DNA dC->dU-editing enzyme APOBEC-3G (Homo sapiens) (UniProt P69720+P69721+P69722+P69723+Q9HC16)
# Test: inhibitors of Vif binding to APOBEC3G peptide, primary screen, biochemical, TR-FRET, GST-Vif 1-94, biotin-A3G peptide, dose response retest (AID 1117319);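 note: Vif residues 1-94 fused to GST binding biotinylated APOBEC3G peptide 110-148; 0% = full assay without inhibitor and 100% = GST in place of GST-Vif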
# Settings: hits give high values
row,SMILES,inhibition
1,O=C(Nc1nsc(-c2ccccc2)n1)c1ccc(F)cc1,inconclusive: 59.3%
2,Cc1ccc(-c2cc(-c3ccc(Cl)cc3)c(C#N)c(N)n2)o1,inactive: 24.5%
3,COc1ccc(S(=O)(=O)N2CCOCC2)cc1NC(=O)CO/N=C/c1ccccc1OC(F)F,inconclusive: 49.6%
4,CC(=O)Nc1nc(CCN2C(=O)c3ccccc3C2=O)cs1,inconclusive: 54.8%
5,Nc1ccccc1C(=O)N(Cc1ccccc1)Cc1ccccc1,inconclusive: 36.4%
6,N#CC1=C(N)OC2=C(C(=O)CCC2)C1C1C=CCCC1 (centres undefined),inconclusive: 33.4%
7,CCc1ccccc1NC(=O)CSC1=C(C#N)C(c2ccc(O)c(OC)c2)C2=C(CCCC2=O)N1 (centres undefined),inconclusive: 52.1%
8,O=C(CCc1ccccc1)Nc1ccc(S(=O)(=O)N2CCOCC2)cc1,inconclusive: 42.9%
9,c1ccc(CNn2nnnc2-c2ccccc2)cc1,inactive: 1.36%
10,NC(=O)COC(=O)c1c2c(nc3ccccc13)CCCC2,inconclusive: 35.4%
11,Cc1ccc2c(c1)c(C)c(C)n2CC(O)CN1CCCCC1C (centres undefined),inconclusive: 43%
12,O=C(NCCN1CCCCC1)c1c(O)c2ccccc2[nH]c1=O,inconclusive: 59%
13,COc1cc([N+](=O)[O-])ccc1NC(=O)C[n+]1ccccc1,inconclusive: 42.3%
14,CCN(CC)CCNc1cc(C)nc2c1C(=O)C(=O)C=C2N1CCCCC1,inconclusive: 44.8%
15,Cc1csc(Nc2cccc3ccccc23)n1,inconclusive: 42.9%
16,O=C1OCCC1Sc1nnc(-c2ccc(F)cc2)n1Cc1ccccc1 (centres undefined),inconclusive: 37.5%
17,Cc1ccc(NC(=S)C2=C(O)c3sccc3N(C)S2(=O)=O)cc1,inactive: 10.2%
18,N#Cc1c(N2CCOCC2)nc(-c2ccco2)c2c1CCCC2,inconclusive: 36%
19,CC1CCCN(CC(=O)NC(=O)NC2CCCCC2)C1 (centres undefined),inconclusive: 44.4%
20,O=C(Nc1nc2c(F)cc(F)cc2s1)C1COc2ccccc2O1 (centres undefined),inconclusive: 49.1%
21,O=C(O)C12CC3CC(C1)CC(n1cnc(Cl)n1)(C3)C2,inactive: 23.7%
22,CC1CCCCN1C(=O)Cc1ccc(F)cc1 (centres undefined),inconclusive: 41.8%
23,O=C(C1CC(=O)N(c2ccc(F)cc2)C1)N1CCCCCC1 (centres undefined),inconclusive: 48.5%
24,C/C=C/C(=O)N1CC2(CC(c3cccc(NC(=O)CCCCC)c3)=NO2)C[C@H]1C(N)=O (some centres undefined),inconclusive: 46.5%

row,SMILES,inhibition
1,O=C(Nc1ccccc1)N1CCNCC1,inconclusive: 43.1%
2,Nc1nc(SCc2ccc3c(c2)OCCO3)n[nH]1,inconclusive: 48.2%
3,O=C(C#Cc1ccccc1)c1ccccc1,inactive: -8.84%
4,CCNc1nc(NCC)nc(N/N=C/c2ccc(O)c(OC)c2)n1,inconclusive: 47.9%
5,CC1(C)CC(=O)C(CC2=C(N)CC(C)(C)CC2=O)=C(N)C1,inconclusive: 40%
6,Cc1cc(NCCCn2ccnc2)n2c(nc3ccccc32)c1C#N,inconclusive: 40.6%
7,Cc1ccnc(-n2c(C)cc(C=O)c2C)c1,inconclusive: 43.9%
8,O=C(NN=c1c(=O)c2ccccc2c1=O)c1ccccc1,inconclusive: 55.7%
9,COc1ncnc2c1N[C@@](C)(O)c1c(F)c(F)c(F)c(F)c1S2,inconclusive: 52.7%
10,CC(=O)NC(=S)Nc1ccc(NC(=O)c2cccnc2)cc1,inconclusive: 42.8%
11,COC(=O)/C(=N/Nc1cccc(C)c1)N1CCCc2ccccc21,inactive: 24.9%
12,O=C(O)CCN1CCc2ccccc21,inconclusive: 37.3%
13,O=C(c1ccc(Br)cc1)N1CCCc2ccccc21,inactive: 4.85%
14,Nc1nnc(CCc2ccccc2)s1,inconclusive: 36.6%
15,c1ccc2nc(-c3ccc4c(c3)OCO4)ccc2c1,inactive: 5.74%
16,Cc1ccc(NC(=O)c2ccc(Cl)nc2)cc1,inactive: 16.1%
17,O=[N+]([O-])c1cccnc1N1CCOCC1,inconclusive: 51.4%
18,CC1CC(=O)C(C2c3ccccc3CCN2C(=O)CCl)C(=O)C1 (centres undefined),inconclusive: 41.7%
19,Cc1ccc(S(=O)(=O)N2CCC(=O)N(CCOC(=O)NCc3ccccc3)CC2)cc1,inconclusive: 33.1%
20,C/C(=N\Nc1ccc([N+](=O)[O-])cc1)c1ccc(N2CCOCC2)cc1,inconclusive: 46.7%
21,O=C1CC(Nc2ccc(N3CCOCC3)cc2)C(=O)N1c1cccc(C(F)(F)F)c1 (centres undefined),inconclusive: 74.4%
22,CCNC(=S)N/N=C/c1ccc(C#N)cc1,inconclusive: 37.8%
23,C/C(CC(=O)Nc1cc(C)ccn1)=N\NC(=O)c1ccccc1C,inconclusive: 40.5%
24,CCN(Cc1ccc(NC(C)=O)cc1)CC1CCCN(CCc2cccc(OC)c2)C1 (centres undefined),inactive: 3.62%

row,SMILES,inhibition
1,CCC(=O)Oc1ccc2c(c1)O/C(=C\c1ccco1)C2=O,inconclusive: 50.8%
2,CSc1nsc(/C=C/Nc2ccc(O)cc2C)c1C#N,inconclusive: 43%
3,S=C(Nc1ccc(Nc2ccccc2)cc1)NC1CCCCCC1,inconclusive: 33.7%
4,CC1CCN(C(=O)CN2C(=O)C(C)(C)Oc3ccc(C(=O)NC4CCCC4)cc32)CC1,inconclusive: 35.1%
5,O=C(NCc1cccs1)C1CCCN1C(=O)Nc1cccc(Cl)c1 (centres undefined),inconclusive: 42.7%
6,Cc1cccc(NC(=O)c2ccc(C)c(S(=O)(=O)N3CCCCC3)c2)n1,inactive: 2.93%
7,COc1ccc(CCn2ccc(O)c(Cc3ccc(Cl)cc3Cl)c2=O)cc1OC,inconclusive: 34.6%
8,CCOC(=O)c1ccc(N2N=C(C)/C(=C/C=C/c3ccco3)C2=O)cc1,inconclusive: 48.1%
9,CCOc1ccc(NC(=O)c2ccc(OC)cc2)cc1,inconclusive: 34.3%
10,Cn1c(SCC(=O)N/N=C/C=C\c2ccco2)nc2ccccc21,inconclusive: 47.8%
11,CCOC(=O)C(CCCCCCP(=O)(c1ccccc1)c1ccccc1)NC(C)=O (centres undefined),inconclusive: 60.1%
12,O=C(CCN1CCOCC1)Nc1cccc(Br)c1,inconclusive: 61.1%
13,Cc1ccc(NC(=O)c2cc(-c3ccccc3)nn2-c2ccccc2)c(Br)c1,inconclusive: 34.4%
14,CCCN(CCC)C(=O)Nc1cc(Cl)ccc1OC,inconclusive: 52.7%
15,CCCC(=O)N1CCc2[nH]c3ccccc3c2C1,inconclusive: 43.9%
16,O=C(/C=C/c1ccco1)NC(=S)Nc1ccc(Cl)cn1,inconclusive: 57.5%
17,O=S(=O)(c1ccc(NC2CCCCC2)cc1)N1CCOCC1,inconclusive: 35.3%
18,Cc1ccc(CN2C(=O)c3ccccc3NC2c2cc(Br)ccc2O)cc1 (centres undefined),inactive: -3.39%
19,COc1ccc(CCN(C)CCCC(C#N)(c2cc(OC)c(OC)c(OC)c2)C(C)C)cc1OC (centres undefined),inconclusive: 44.7%
20,Cc1ccc(C2c3c(oc4ccccc4c3=O)C(=O)N2c2nnc(C(C)C)s2)o1 (centres undefined),inconclusive: 36%
21,Cn1c(=O)c(Nc2ccc(O)cc2)c2c3c(cccc31)C(=O)c1ccccc1-2,inconclusive: 59.1%
22,O=[N+]([O-])c1ccccc1C1Nc2cccc3cccc(c23)N1,inconclusive: 38.8%
23,CC(C)NS(=O)(=O)c1ccc(Oc2ncc(C(F)(F)F)cc2Cl)cc1,inconclusive: 49.2%
24,O=C(CSc1c[nH]c2ccccc12)NCc1ccc2c(c1)OCO2,inconclusive: 30.6%

row,SMILES,inhibition
1,O=C(NCc1ccccc1)c1cc(-n2cnnc2)ccc1Cl,inconclusive: 40.4%
2,c1ccc(-c2nnc(-c3ccccn3)c(-c3ccccn3)n2)nc1,inconclusive: 36.9%
3,CCC(Oc1ccccc1)C(=O)N1CC(C)CC(C)C1 (centres undefined),inconclusive: 49.2%
4,O=S(=O)(c1ccccc1Cl)N1CCCC1c1nc(-c2ccc(Cl)cc2)no1 (centres undefined),inconclusive: 56.4%
5,CCN(CCCNC(=O)COc1cc(=O)n(CC)c2ccccc12)c1ccccc1,inconclusive: 56.7%
6,Cc1ccc2cc(CN(CC3CCCO3)C(=O)NC3CCCCC3)c(=O)[nH]c2c1C (centres undefined),inconclusive: 47%
7,CC(=O)Nc1ccc(NC(=O)C23CC4CC(C2)CC(n2cnc(Br)n2)(C4)C3)cc1,inconclusive: 35.4%
8,Cc1ccc(OCC(=O)Nc2ccc(S(=O)(=O)Nc3ccccn3)cc2)c(C)c1,inconclusive: 42.5%
9,COc1ccc(-c2nnc(CSc3nc4ccccc4c(=O)n3CC(C)C)o2)cc1OC,inconclusive: 35.6%
10,COc1ccc(NC(=O)Nc2nnc(CC(=O)Nc3ccccc3)s2)cc1,inconclusive: 51%
11,CCn1c(SCc2nc(-c3ccccc3)no2)nnc1-c1ccco1,inconclusive: 45.4%
12,S=c1[nH]nc(-c2cccnc2)n1/N=C/c1ccco1,inactive: 3.51%
13,NC(=S)NNC(=O)Nc1ccc(Cl)c(Cl)c1,inconclusive: 44.8%
14,O=C1N(c2ccccc2)C[C@@H]2C[C@@H](c3cc4ccccc4o3)N3CCC[C@@]123,inconclusive: 41.9%
15,O=C(c1cccs1)N1CCN(S(=O)(=O)c2ccc(F)cc2)CC1,inconclusive: 48%
16,Cc1ccc(Nc2c3c(nc4ncnn24)CC(C)CC3)cc1 (centres undefined),inconclusive: 38%
17,COc1ccc(C2=Nn3c(nnc3-c3ccncc3)SC2)cc1OC,inconclusive: 16.9%
18,COC(=O)C1=C(O)/C(=C\c2cc(C)n(-c3ccccc3C)c2C)N=C1C,inconclusive: 38.8%
19,CC(c1ccccc1)n1cnc2ccccc21 (centres undefined),inconclusive: 58.2%
20,O=C(COC(=O)COc1ccccc1[N+](=O)[O-])Nc1cccc(Br)c1,inconclusive: 38.8%
21,COc1ccc(-c2csc(NC(=O)CCn3cnc4ccccc4c3=O)n2)cc1OC,inconclusive: 15.5%
22,COc1nc(N(C#N)CC(N)=O)nc(N2CCCC2)n1,inconclusive: 55.4%

# Single entries from the list:
# Entry for CCC(Oc1ccccc1)C(=O)N1CC(C)CC(C)C1 (centres undefined) under inhibition: inconclusive: 49.2%
# Entry for c1ccc(-c2nnc(-c3ccccn3)c(-c3ccccn3)n2)nc1 under inhibition: inconclusive: 36.9%
# Entry for Cc1ccc(OCC(=O)Nc2ccc(S(=O)(=O)Nc3ccccn3)cc2)c(C)c1 under inhibition: inconclusive: 42.5%
# Entry for CCn1c(SCc2nc(-c3ccccc3)no2)nnc1-c1ccco1 under inhibition: inconclusive: 45.4%
